# Data from the supplement of paper PMC3334620.
# In all, about 33,000 sequences were measured (“E-score (-0.5 to 0.5)”: median about -8e-05, highest 2% from about 0.23 on). This is one part of the list.
# Target: T1, Nrg2 (UniProt P38082)
# T1 sequence: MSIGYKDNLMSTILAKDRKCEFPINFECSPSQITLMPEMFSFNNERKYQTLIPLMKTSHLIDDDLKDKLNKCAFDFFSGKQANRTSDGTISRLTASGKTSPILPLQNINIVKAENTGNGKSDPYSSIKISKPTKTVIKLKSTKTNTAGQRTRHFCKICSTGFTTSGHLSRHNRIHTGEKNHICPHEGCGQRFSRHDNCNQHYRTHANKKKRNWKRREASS
# Experiment: PBM E-score (8-mer binding enrichment) (E-score (-0.5 to 0.5)); higher = stronger / more preferred TF binding
# Conditions: protein concentration: 100 nM; construct: GST-full length
# How it was run: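 Using PURExpress in vitro transcription/translation, GST-tagged yeast transcription factors were made in full-length or DNA-binding-domain form. These were applied at about 100-200 nM to double-stranded universal all-10-mer Agilent arrays, and bound protein was detected with fluorescent anti-GST. Scans were normalised with masliner before the Universal PBM Analysis Suite assigned E-scores to ungapped eight-base words pooled with their reverse complements.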
row,Sequence,PBM E-score
1,AGTTCTAG,-0.0512
2,AGGCTAGC,-0.223
3,ATGTAACG,-0.0338
4,AACTGGGG,0.0723
5,CAGCCAAG,-0.0194
6,ATACTACC,0.0168
7,AAAGACAC,0.0428
8,CGTCAGCC,-0.0208
9,ATAATACA,0.282
10,CGAACAAC,0.152
11,ATAGTCCG,-0.149
12,GATGGGCC,-0.0607
13,GATGAACC,-0.0336
14,GATGGCTA,-0.0352
15,TGAACACA,-0.00911
16,TAAGAGAA,0.0551
17,AGTCATAG,-0.00021
18,ATAGGTAC,0.127
19,CTTTCGAA,0.00871
20,AGACCATG,-0.148
21,ACCTAGGG,0.0541
22,AAACTAGA,-0.0323
23,CTCTACTC,0.0129
24,AATTCCCA,-0.0117
25,GTTAGAGA,-0.209

row,Sequence,PBM E-score
1,AGAACTTA,0.046
2,CTGCTAAA,-0.0803
3,CGTGGCGC,-0.101
4,AGTTACAT,0.0124
5,GCGGGACA,-0.104
6,ATATCACA,-0.031
7,AAACGTAA,0.0997
8,CAAGGGAC,0.261
9,CACGGGTA,-0.0681
10,AGATGGTA,0.0502
11,AGCGTCTG,-0.119
12,ATCGTTCC,-0.194
13,TATTCAGA,0.0498
14,ACCCTTAG,0.123
15,CTTAGCGC,0.201
16,CAGTAAGG,0.0543
17,AGAACGAC,-0.0328
18,AAACGAAT,0.0286
19,GGACCGCC,-0.0968
20,ACCGTGCT,-0.171
21,AGTATTGG,0.0226
22,CAGGTATG,-0.0355
23,TCGGATCA,0.0657
24,CTCCTGAC,0.0802
25,CGCTCGAC,-0.129

row,Sequence,PBM E-score
1,TACCAATA,0.0341
2,AAAAAGCA,-0.0586
3,GAGTTCAC,-0.0228
4,AAAGGATG,0.0449
5,CCACATAG,-0.0377
6,AAAGTCAC,-0.113
7,CCCCCTAA,-0.257
8,TCACTACA,0.24
9,AAAGTCCG,0.021
10,CCCGTTCG,-0.0552
11,ACCTCCAT,-0.164
12,AGACTGAA,-0.0653
13,AACTTGGT,0.0862
14,ATTCAGAG,0.132
15,CCGAACTA,0.118
16,CACGAGAC,-0.0565
17,GTCGGTCA,-0.0854
18,CGGGTCAC,-0.00145
19,AAACGGTT,-0.109
20,ACGCCTAG,-0.222
21,AGAATCGA,0.0175
22,CGTATCAG,0.0306
23,CTTTTAAC,-0.0106
24,CAACTAGC,0.188
25,GTGCGTCA,-0.0637

row,Sequence,PBM E-score
1,GGTACGCA,0.0769
2,GTGCCGTA,0.0726
3,CGGACAGA,0.0387
4,CCCGGACA,0.0765
5,ACACGCGA,0.0601
6,TAACGTAA,0.0506
7,ATCCAGCC,-0.106
8,CTTATGTA,-0.14
9,TAGATTCA,-0.0516
10,CCCTGCCG,0.145
11,GAGGAGGA,-0.265
12,AATTATTG,0.139
13,ACCGGTAA,-0.22
14,GTGTCGTA,0.0777
15,AGCCAATG,-0.13
16,ACCGTTAG,-0.124
17,CCTATTAA,0.109
18,AATATGAC,-0.0422
19,CAGATAAC,0.144
20,ACTCGTGG,0.00466
21,CTCTCAGA,-0.143
22,CCCGCATA,0.168
23,GCCGTACA,0.0541
24,AGAGAGGA,-0.0714
25,CTTAAGCA,-0.273

row,Sequence,PBM E-score
1,ATTTCTGC,0.189
2,CCACGGGG,-0.232
3,GTGAGAAA,0.0881
4,CCGCCAAC,-0.126
5,AAAGAGTT,-0.211
6,AAACAACC,0.0768
7,GTTAGAAA,-0.127
8,GTGCACGA,-0.0234
9,CCTTCTCG,-0.172
10,CAGAGAGG,-0.162
11,GGAGTGAC,0.102
12,ATGATATG,0.228
13,CAGTAGTC,-0.179
14,GTCGAACA,0.198
15,ACTTTGAA,-0.134
16,CACCGCTC,0.11
17,ATAAGGGC,0.17
18,ATCACCAC,0.13
19,AGGCAAAC,-0.0365
20,ACTTAGCG,0.0674
21,CTGATATC,0.0442
22,AATCTAAA,-0.0927
23,AGATGAGA,0.148
24,ACCCTGAT,0.249
25,ACAGAACT,0.0582

# Two records picked at random from those above, as already listed:
row,Sequence,PBM E-score
14,GTCGAACA,0.198
16,CAGTAAGG,0.0543

# As entered above.
# In PBM E-score, GTCGGTCA reads -0.0854
# In PBM E-score, AACTGGGG reads 0.0723
# In PBM E-score, AAACGGTT reads -0.109
# In PBM E-score, AAACGAAT reads 0.0286
# In PBM E-score, AAAGACAC reads 0.0428
# In PBM E-score, AGAGAGGA reads -0.0714

# The list goes on:

row,Sequence,PBM E-score
1,AACGATGG,-0.124
2,ACCATGAC,0.0718
3,AAGTCTAG,-0.282
4,ATTTGACC,0.0698
5,ACACAGTA,-0.103
6,AAGACAAC,0.235
7,GCACCTGA,0.0367
8,GCAAGGAC,0.0953
9,GCGGAAAA,0.0533
10,GACTGTTA,-0.0515
11,TCTGCACA,-0.0685
12,AAGCAGGC,-0.232
13,CTGTTCCA,-0.0207
14,TCGGCACA,-0.0415
15,GACGGCCC,-0.0825
16,ACCCGGCT,-0.116
17,ATCATCCG,-0.0548
18,CCGAGTTA,-0.0272
19,CTTCGTGA,0.0235
20,ATGGGTGC,-0.0107
21,AGGAGTCC,-0.207
22,AGGATCTC,-0.16
23,AAACACTC,0.149
24,AGCACACA,-0.0461
25,CAACCGAC,0.17

row,Sequence,PBM E-score
1,CTGCACAA,0.00758
2,CCACCATA,0.0773
3,ACGCTCTG,-0.155
4,ATTTGATG,0.0343
5,GTCTCCCA,-0.178
6,CGAAGATA,0.216
7,ACGTTAAC,0.105
8,ACATTCAC,0.0832
9,CATCCTTA,0.00611
10,AGAAGGGG,-0.15
11,CCGCCTCA,-0.268
12,CCTGCGCG,0.125
13,CTCTTGGA,-0.0343
14,CCAGGGAG,-0.107
15,ATTGACTA,0.00845
16,GGCCGTCA,-0.12
17,GAAATCTC,-0.102
18,ACTGCTCC,0.0162
19,AGTCGGGC,-0.0859
20,GGAGCTGA,-0.155
21,CTTAAAAA,-0.057
22,CTTCCTCC,-0.301
23,AGGTTCAG,0.0524
24,AACGCGTG,0.0072
25,CTAAGCTA,0.112

row,Sequence,PBM E-score
1,AAGTCACC,-0.0997
2,AGAATTAT,0.0554
3,ACAGCTGA,0.0892
4,ACGTCGGA,0.0488
5,CGCTCCCG,-0.218
6,CTGTGCCA,-0.0838
7,CGCGCCGC,0.0975
8,CATGGACG,-0.0852
9,ACCAACCC,-0.0516
10,CTGAACAA,0.079
11,CTTAGATC,-0.0835
12,CGAAATCG,0.119
13,AAGGGTAA,0.0761
14,ACACGAGG,-0.0912
15,CCGAACGC,0.0363
16,CCAGAGGA,-0.133
17,AAATCAGG,0.0425
18,GATGGTCA,0.0733
19,TGCAAGAA,0.102
20,CCTCCGAG,-0.156
21,GGATCGGA,-0.175
22,GAATGGAA,0.154
23,CGTGTAGA,0.0517
24,GGGATCCA,0.0432
25,CACGTCAC,-8e-05

row,Sequence,PBM E-score
1,ATATAACG,0.243
2,CGTACGGC,-0.152
3,TGCGAGCA,0.123
4,CAATATAA,0.212
5,ATTGAACA,-0.0876
6,ATACCCAG,0.0171
7,CCCGAGAA,0.164
8,AAGAGTCG,0.0232
9,AGGTGACG,-0.154
10,ACGGCTAG,-0.271
11,AACCCATT,0.00038
12,CCTGATGC,0.0691
13,GGTGACTA,-0.0471
14,ACTGTATG,-0.0431
15,CGGCCAGA,-0.0298
16,CCGGCACG,-0.183
17,GGGTCCCA,0.137
18,AAAGCTAG,-0.0627
19,CTCGAGGC,0.192

# Some of the entries above, reformatted.
row | Sequence | PBM E-score
8 | GCAAGGAC | 0.0953
9 | GCGGAAAA | 0.0533
